Test results taken from publication PMC11882969 (Nature Communications, 2025).
Several values for one entry are separate records, joined by “and”; a condition that tells them apart may be missing. Equal values may be shown once. This continues a long series; more values of the same kind are listed elsewhere.

The chains behind the UniProt entries cited, without tags or fusion partners.
UniProt P21554, whole entry: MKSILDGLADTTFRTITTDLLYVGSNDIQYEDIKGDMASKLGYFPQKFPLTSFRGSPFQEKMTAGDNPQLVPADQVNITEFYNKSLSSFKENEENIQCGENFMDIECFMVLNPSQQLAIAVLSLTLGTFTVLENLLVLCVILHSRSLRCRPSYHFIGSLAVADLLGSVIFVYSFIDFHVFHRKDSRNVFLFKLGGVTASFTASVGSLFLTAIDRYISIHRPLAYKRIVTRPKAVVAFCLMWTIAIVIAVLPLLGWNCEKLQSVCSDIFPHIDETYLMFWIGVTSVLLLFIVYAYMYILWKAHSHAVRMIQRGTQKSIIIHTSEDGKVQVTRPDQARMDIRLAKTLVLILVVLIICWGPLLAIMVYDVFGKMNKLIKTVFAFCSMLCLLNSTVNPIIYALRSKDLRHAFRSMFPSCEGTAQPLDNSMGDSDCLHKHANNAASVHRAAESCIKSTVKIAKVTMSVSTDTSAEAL
UniProt P34972, whole entry: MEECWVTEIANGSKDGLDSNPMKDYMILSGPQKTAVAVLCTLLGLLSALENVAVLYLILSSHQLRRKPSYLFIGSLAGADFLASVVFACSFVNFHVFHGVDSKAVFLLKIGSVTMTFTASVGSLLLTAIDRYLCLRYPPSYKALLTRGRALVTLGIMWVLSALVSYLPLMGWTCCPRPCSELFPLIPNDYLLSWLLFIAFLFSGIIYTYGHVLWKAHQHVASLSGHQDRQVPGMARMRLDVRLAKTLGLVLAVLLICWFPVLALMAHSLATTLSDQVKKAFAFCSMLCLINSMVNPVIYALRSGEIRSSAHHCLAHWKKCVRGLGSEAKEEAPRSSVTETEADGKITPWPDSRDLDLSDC

Assays:
hCB1 = hCB1 (Homo sapiens, UniProt P21554); assay: Tango β-arrestin-2 recruitment, HTLA cells, CB1R; assay type: cell-based; design: expressed in transfected cells; host or cells: HTLA cells (gift of R. Axel), transient transfection
hCB2 = hCB2 (Homo sapiens, UniProt P34972); assay: TRUPATH BRET2 GoA dissociation, HEK293T; assay type: cell-based; design: expressed in transfected cells; host or cells: HEK293T cells (ATCC: CRL-3216), transient co-transfection; conditions: replicate columns

| SMILES | response, replicate values of concentration-response curve (FigS7f) (hCB1; Log[drug] in M = -8) | response, replicate values of concentration-response curve (FigS7f) (hCB1; Log[drug] in M = -8.52) | response, replicate values of concentration-response curve (FigS7f) (hCB1; Log[drug] in M = -9) | response, replicate values of concentration-response curve (FigS7f) (hCB1; Log[drug] in M = -9.52) | functional response, concentration-response point (FigS7e, normalized) (hCB2; Log[drug] in M = -9) | functional response, concentration-response point (FigS7e, normalized) (hCB2; Log[drug] in M = -9.52) | functional response, concentration-response point (FigS7e, normalized) (hCB2; Log[drug] in M = -10) | functional response, concentration-response point (FigS7e, normalized) (hCB2; Log[drug] in M = -10.52) | functional response, concentration-response point (FigS7e, normalized) (hCB2; Log[drug] in M = -11) | functional response, concentration-response point (FigS7e, normalized) (hCB2; Log[drug] in M = -11.52) | functional response, concentration-response point (FigS7e, normalized) (hCB2; Log[drug] in M = -12) | functional response, concentration-response point (FigS7e, normalized) (hCB2; Log[drug] in M = -4.52) |
| --- | --- | --- | --- | --- | --- | --- | --- | --- | --- | --- | --- | --- |
| COC(=O)[C@@H]1[C@@H]2CCC[C@@H]2CN1C(=O)c1cc(C)n(-c2cccc(Cl)c2)n1 (racemic) [‘10010] | -50.0737 and -6.482 and 0.6288 and 1.583 and -35.9577 and -25.6736 and 3.588 and -5.354 and 5.296 and 10.0411 and -22.9484 and -9.607 | 33.1038 and 12.658 and 7.2455 and -21.6661 and -19.2377 and -1.788 and -12.1741 and 1.638 and 7.286 and 21.1773 and -10.7368 and -8.276 | -10.6778 and 12.0242 and 13.8115 and 7.05 and -13.3858 and -8.609 and 13.3383 and -7.627 and -23.0257 and 34.5007 and 1.056 and 13.6681 | -2.796 and 29.5951 and 8.317 and -8.769 and -1.8277 and 19.136 and -37.1648 and -36.8003 | 0.5634 and -0.3529 and 0.2365 and 0.6575 and 0.2282 and 0.6319 and 0.3753 and 1.111 and -0.09291 and 0.0625 and 0.08615 and 0.2483 | -0.04582 and -0.001238 and 0.7962 and 0.2662 and 0.5715 and -0.1754 and 0.2886 and 0.6658 and -0.07601 and -0.06926 and 0.04899 and 0.05574 | -0.2984 and -0.05077 and -0.1746 and 0.1771 and 0.2659 and 0.001886 and 0.1792 and 0.9714 and -0.2145 and -0.1368 and -0.005068 and -0.08615 | -0.1053 and -0.13 and -0.3777 and -0.1449 and 0.2094 and 0.281 and -0.149 and -0.2433 and -0.04223 (2×) and 0.6064 and 0.0152 | 0.06315 and 0.9894 and 0.4396 and -0.03591 and 0.3678 and -0.1188 and -0.001886 and 0.2697 and -0.1706 and 0.008446 and -0.1976 and -0.2652 | 0.3901 and -0.06068 and 1.668 and 0.6773 and 1.111 and 0.09997 and -0.04715 and 0.1037 and -0.3666 and 0.09966 and -0.1267 and -0.0625 | 0.2245 and -0.2131 and -0.1528 and 0.1415 and 0.201 and -0.3226 and -0.03547 and 0.1571 |  |
| Cc1cc(C(=O)N2CC3(CCC3)C2C2CCCO2)nn1-c1cccc(C(F)(F)F)c1 (stereo not drawn) [‘3737] | 20.4123 and 28.3093 and -3.1263 and -13.6436 and 12.9092 and 43.9738 and -17.7328 and -7.871 and -2.85 and 12.9287 and 26.9082 | 3.731 and -5.75 and -45.2348 and -21.8046 and -32.7787 and -4.62 and -20.9964 and 0.2016 and -12.8324 and -16.7254 and -40.4377 | 31.9092 and 23.1249 and -0.1881 and 29.7088 and 13.1348 and 18.2371 and -3.466 and 3.738 and -37.9225 and 71.0157 |  | 0.0674 and -0.4574 and -0.1541 and -0.2937 and -0.01634 and 1.0402 and 0.005446 and -0.1507 and 1.555 and 0.4069 (2×) and 0.2093 | 0.2167 and -0.3129 and -0.04815 and -0.4044 and 0.4847 and 0.05991 and 0.1725 and -0.06354 and 0.4351 and 0.3316 and 0.1058 and 0.1717 | -0.04333 and -0.4526 and 0.5874 and -0.3659 and 1.204 and 0.1035 and 0.5137 and 0.2233 and 0.2328 and 0.5433 and 0.214 and -0.3034 | -0.3852 and -0.1155 and -0.6114 and 0.727 and 1.037 and 0.08532 and -0.01271 and 0.3032 and 0.07761 and 0.3175 and 0.4069 and -0.08232 | 0.1204 and 0.2696 and 0.9581 and 0.1492 and 0.118 and 0.6263 and -0.2596 and 0.5246 and 0.1105 and -0.1058 and -0.167 and -0.03998 | -0.05296 and -0.02889 and -0.2552 and 0.1059 and -0.1979 and 0.05628 and 0.6118 and 0.6445 and 0.1105 and 0.0588 and 0.3504 and 0.167 | -0.2306 and 0.4629 and 0.2705 and -0.5029 and -0.1058 and 0.1482 and -0.1952 and 0.1529 |  |
| COC(=O)C(C)(NC(=O)c1cc(C)n(-c2cccc(C(F)(F)F)c2)n1)c1cccs1 (stereo not drawn) [‘4042] | 5.47 and 20.5031 and -17.7013 and 3.868 and -9.946 and 16.1296 and 11.8289 and 2.756 and -4.61 and 53.764 and 31.1817 and 101.626 | -26.7897 and 2.136 and -8.778 and 14.6567 and 11.5117 and 19.9513 and -8.793 and -8.652 and 7.292 and -12.543 and 23.0893 and -38.5701 | 3.86 and 10.8189 and -7.168 and -0.5372 and 18.0936 and 0.8694 and -3.216 and -14.128 and -10.0259 and 52.6158 and 14.8328 and 50.7749 | 4.227 and 21.1323 and -4.893 and 12.031 and 1.543 and 47.2755 and -8.005 and 4.79 | 0.3035 and 1.168 and 1.593 and 0.5433 and 0.263 and -0.001911 and 0.5967 and -0.2668 and 0.5652 and 0.6952 and 0.5499 and 0.6034 | 0.5783 and 0.1986 and 0.3035 and -0.5508 and -0.4503 and 0.477 and 0.1025 and 0.342 and 0.2553 and 0.5996 and 0.07172 and 0.2821 | 0.4234 and 0.2486 and 0.3685 and 0.04871 and -0.2184 and -0.4987 and -0.05795 and 0.07706 and 0.2515 and 0.11 and 0.2859 and 0.5919 | -0.4259 and 1.1379 and 0.3635 and 0.02873 and -0.2286 and -0.2261 and -0.7534 and -0.5802 and 0.152 and -0.1234 and -0.06216 and 0.328 | 0.1187 and 0.1486 and 0.1386 and 1.752 and -0.4987 and -0.3917 and 0.3777 and 0.05923 and 0.1903 and -0.04686 and 0.1023 and 0.1788 | -0.142 and -0.2668 and 0.06942 and 0.1229 and -0.2611 and 0.6302 and 0.2515 and 0.04112 |  |  |
| COC(=O)[C@@H]1[C@@H]2CCC[C@@H]2CN1C(=O)c1cc(C)n(-c2cccc(C(F)(F)F)c2)n1 [‘6439] | 8.888 and -10.4292 and 21.5767 and -22.8584 and 10.6877 and 23.7054 and -3.03 and -25.4505 and -11.5273 and -38.9085 and 5.7458 and 45.3696 | -14.5868 and 2.12 and -14.2573 and -12.1496 and -17.9485 and -1.587 and 2.416 and 0.9712 and -11.8708 and -18.969 and 2.392 and 30.6611 | -11.1644 and -28.8723 and -9.377 and -20.3371 and 7.569 and 22.8296 and -25.6829 and 19.6837 and -2.696 and -21.5753 and 28.6015 and 26.5602 | 7.801 and 7.8924 and -6.684 and 10.8674 and 11.8334 | -0.3699 and -0.629 and -0.4075 and -0.1343 and -0.3404 and -0.2341 and 0.1145 and 0.1115 and 0.0731 and 0.05482 and 0.5848 and 0.05117 | -0.2521 and -0.4876 and 0.08245 and 0.4641 and -0.2961 and 0.2119 and 0.07606 and 0.2444 and -0.1791 and -0.2705 and 0.2376 and 0.1498 | 0.1578 and 0.6054 and -0.2426 and -0.08716 and -0.302 and 0.587 and -0.1484 and 0.2031 and -0.1316 and 0.1352 and 0.2266 and 0.2705 | 0.417 and 1.067 and -0.2097 and -0.6384 and -0.2577 and -0.003692 and -0.5501 and -0.2164 and 0.01462 and 0.1133 and -0.2156 and 0.4386 | -0.1249 and -0.1814 and -0.06361 and 0.3416 and -0.4024 and -0.3168 and -0.3315 and 0.3744 and 0.2668 and 0.201 and 0.1535 and 0.04386 | 0.5724 and 0.2002 and 0.6149 and 0.662 and -0.2754 and 0.2474 and 0.2385 and -0.11 and 0.19 and -0.06944 and 0.1681 and -0.117 | -0.06277 and -0.3788 and 0.2119 and 0.2296 and 0.3545 and 0.1498 and -0.2156 and -0.2887 |  |
| COC(=O)C(NC(=O)c1cc(C)n(-c2cccc(C(F)(F)F)c2)n1)c1cccs1 (stereo not drawn) [‘60154] | 5.662 and 44.2322 and 0.6715 and -38.8065 and -37.3719 and -32.3397 and 2.737 and -16.836 and -23.2586 and 11.7794 and -7.004 and 2.645 | 31.5201 and 15.8539 and -7.22 and 3.077 and 5.6872 and -25.4568 and 14.693 and -5.291 and 4.581 and -3.063 and -9.398 and -16.9561 | 36.527 and -18.5936 and 28.2842 and -24.2438 and -27.0413 and -11.4376 and 6.346 and 0.7465 and -10.1746 and 6.091 and -16.8046 and -30.7581 | 4.777 and 6.03 | 0.6163 and 0.5183 and 0.4074 and 1.047 and -0.2357 and 0.1979 and 0.1575 and -0.04009 and 0.3689 and 0.06463 and 0.2642 and -0.2325 | 0.2685 and 0.03626 and 0.3306 and 0.1173 and -0.1752 and 0.8129 and 1.216 and 0.4508 and 0.4115 and 0.05154 and 0.2479 and -0.2453 | 0.4852 and 0.1984 and 0.2837 and 0.1429 and -0.2054 and -0.4121 and -0.2206 and -0.292 and -0.1252 and -0.2855 and 0.2348 and 0.3434 | -0.2155 and -0.1301 and 0.1173 and 0.6122 and -0.05924 and -0.4575 and 0.3894 and -0.3771 and -0.1415 and 0.6209 and -0.03027 and 0.6932 | -0.2407 and 0.2837 and 0.3434 and 0.1088 and 0.1575 and 0.2735 and -0.008823 and -0.09899 and -0.3935 and 0.04172 and -0.027 and 0.3306 | 0.2937 and -0.224 and 0.3989 and -0.08319 and 0.4298 and 0.2332 and 0.7726 and -0.1284 and 0.8434 and -0.1448 and 0.03845 and 0.1642 | -0.5482 and -0.07466 and -0.02773 and 0.1642 and -0.271 and 0.6314 and 0.1878 and 0.3068 and 0.3591 and -0.1742 and -0.4917 and -0.06186 | 20.6654 and 19.9889 and 23.0059 and 15.8569 and 16.3793 and 14.9787 and 14.9484 and 19.8456 |
